Values of other authors in publication PMC3849647, “Pharmacokinetics and biodistribution of the cyclin-dependent kinase inhibitor -CR8- in mice” (BMC Pharmacology & Toxicology, 2013).
Where two headings read alike, the source gives them in different places.

Columns and labels:
[1] = brain vs plasma, reported, no reference given; cited from earlier work
tumor cell lines = conditions: cited from earlier work

**Q.** With `CC[C@H](CO)Nc1nc(NCc2ccccc2)c2ncn(C(C)C)c2n1` [roscovitine] as the compound, how does the “Brain exposure relative to plasma (passage of BBB)” value [1] read?
**A.** The value was 30%.

**Q.** And the IC50 (tumor cell lines; different cell lines, read-out: Optimal concentration for pharmacological effect in-vitro in different cell lines)?
**A.** Its IC50 is 14.6 µM.

**Q.** And the IC50 (tumor cell lines; read-out: Reported anti-tumor IC50)?
**A.** Its IC50 is 15 to 17 µM.
